According to US20190125940A1, “STENTS FOR THE RELEASE OF ACTIVE PRINCIPLES” (CID S.p.A., priority 2016, published 2019):
At least one compound was matched to its structure with a doubt left.

Key:
[1] = In vitro dissolution of the active principles loaded onto stents; assay type: physicochemical; settings: for μg released: acetate buffer pH 4.8 with 0.08% SDS, 37° C.; for cumulative sum over time: sum of quantities released; for % theoretical release: vs initial dose loaded on the stent
[2] = related to in vivo release greater than 30 days; cited from earlier work
[3] = stent of Example 1 (comparative), time 0 hours
[4] = stent of Example 1 (comparative), time 1 hours
[5] = stent of Example 1 (comparative), time 2 hours
[6] = stent of Example 1 (comparative), time 5 hours
[7] = stent of Example 1 (comparative), time 24 hours
[8] = stent of Example 1 (comparative), time 30 hours
[9] = stent of Example 2 (comparative), time 0 hours
[10] = stent of Example 2 (comparative), time 1 hours
[11] = stent of Example 2 (comparative), time 2 hours
[12] = stent of Example 2 (comparative), time 5 hours
[13] = stent of Example 2 (comparative), time 24 hours
[14] = stent of Example 2 (comparative), time 30 hours
[15] = stent of Example 3, time 0 hours
[16] = stent of Example 3, time 1 hours
[17] = stent of Example 3, time 2 hours
[18] = stent of Example 3, time 5 hours
[19] = stent of Example 3, time 24 hours

Question: For `CC(=O)OCC(=O)[C@@]1(O)[C@H](C)C[C@H]2[C@@H]3CCC4=CC(=O)C=C[C@]4(C)[C@@]3(F)[C@@H](O)C[C@@]21C` [Dexamethasone acetate, dexamethasone acetate], which μg released [1, 3] is on record?
Answer: 0 µg

Question: And the “cumulative sum over time” value [1, 3]?
Answer: 0

Question: And the “% theoretical release” value [1, 3]?
Answer: 0%

Question: And the μg released [1, 4]?
Answer: 41 µg

Question: And the “cumulative sum over time” value [1, 4]?
Answer: 41

Question: And the “% theoretical release” value [1, 4]?
Answer: 93%

Question: And the μg released [1, 5]?
Answer: 3 µg

Question: And the “cumulative sum over time” value [1, 5]?
Answer: 44

Question: What about the “% theoretical release” value [1, 5] of the same compound?
Answer: 100%

Question: And the μg released [1, 6]?
Answer: 0 µg

Question: What about the “cumulative sum over time” value [1, 6] of the same compound?
Answer: 44

Question: And the “% theoretical release” value [1, 6]?
Answer: 100%

Question: What about the μg released [1, 7] of the same compound?
Answer: 0 µg

Question: What about the “cumulative sum over time” value [1, 7] of the same compound?
Answer: 44

Question: And the “% theoretical release” value [1, 7]?
Answer: 100%

Question: What about the μg released [1, 8] of the same compound?
Answer: 0 µg

Question: And the “cumulative sum over time” value [1, 8]?
Answer: 44

Question: And the “% theoretical release” value [1, 8]?
Answer: 100%

Question: And the μg released [1, 9]?
Answer: 0 µg

Question: What about the “cumulative sum over time” value [1, 9] of the same compound?
Answer: 0

Question: And the “% theoretical release” value [1, 9]?
Answer: 0%

Question: And the μg released [1, 10]?
Answer: 122 µg

Question: And the “cumulative sum over time” value [1, 10]?
Answer: 122

Question: What about the “% theoretical release” value [1, 10] of the same compound?
Answer: 93%

Question: And the μg released [1, 11]?
Answer: 25 µg

Question: And the “cumulative sum over time” value [1, 11]?
Answer: 147

Question: What about the “% theoretical release” value [1, 11] of the same compound?
Answer: 100%

Question: And the μg released [1, 12]?
Answer: 10 µg

Question: What about the “cumulative sum over time” value [1, 12] of the same compound?
Answer: 157

Question: What about the “% theoretical release” value [1, 12] of the same compound?
Answer: 100%

Question: And the μg released [1, 13]?
Answer: 0 µg

Question: What about the “cumulative sum over time” value [1, 13] of the same compound?
Answer: 157

Question: What about the “% theoretical release” value [1, 13] of the same compound?
Answer: 100%

Question: What about the μg released [1, 14] of the same compound?
Answer: 0 µg

Question: What about the “cumulative sum over time” value [1, 14] of the same compound?
Answer: 157

Question: What about the “% theoretical release” value [1, 14] of the same compound?
Answer: 100%

Question: What about the μg released [1, 15] of the same compound?
Answer: 0 µg

Question: What about the “cumulative sum over time” value [1, 15] of the same compound?
Answer: 0

Question: And the “% theoretical release” value [1, 15]?
Answer: 0%

Question: And the μg released [1, 16]?
Answer: 11 µg

Question: And the “cumulative sum over time” value [1, 16]?
Answer: 11

Question: And the “% theoretical release” value [1, 16]?
Answer: 42%

Question: What about the μg released [1, 17] of the same compound?
Answer: 10 µg

Question: And the “cumulative sum over time” value [1, 17]?
Answer: 21

Question: What about the “% theoretical release” value [1, 17] of the same compound?
Answer: 78%

Question: And the μg released [1, 18]?
Answer: 23 µg

Question: And the “cumulative sum over time” value [1, 18]?
Answer: 44

Question: What about the “% theoretical release” value [1, 18] of the same compound?
Answer: 100%

Question: What about the μg released [1, 19] of the same compound?
Answer: 0 µg

Question: What about the “cumulative sum over time” value [1, 19] of the same compound?
Answer: 44

Question: And the “% theoretical release” value [1, 19]?
Answer: 100%

Question: Which results are given for `CO[C@H]1C[C@@H]2CC[C@@H](C)[C@@](O)(O2)C(=O)C(=O)N2CCCC[C@H]2C(=O)O[C@H]([C@H](C)C[C@@H]2CC[C@@H](O)[C@H](OC)C2)CC(=O)[C@H](C)/C=C(\C)[C@@H](O)[C@@H](OC)C(=O)[C@H](C)C[C@H](C)/C=C/C=C/C=C/1C` [Sirolimus]?
Answer: percentage of dissolution reached ([1]; FIG. 1, stent of Example 1, sirolimus with glyceryl behenate in first layer, release not complete): about 67%; μg released [1, 3]: 0 µg; cumulative sum over time [1, 3]: 0; % theoretical release [1, 3]: 0%; μg released [1, 4]: 15 µg; cumulative sum over time [1, 4]: 15; % theoretical release [1, 4]: 38%; μg released [1, 5]: 4 µg; cumulative sum over time [1, 5]: 19; % theoretical release [1, 5]: 47%; μg released [1, 6]: 2 µg; cumulative sum over time [1, 6]: 21; % theoretical release [1, 6]: 52%; μg released [1, 7]: 6 µg; cumulative sum over time [1, 7]: 27; % theoretical release [1, 7]: 65%; μg released [1, 8]: 2 µg; cumulative sum over time [1, 8]: 29; % theoretical release [1, 8]: 67%; μg released [1, 9]: 0 µg; cumulative sum over time [1, 9]: 0; % theoretical release [1, 9]: 0%; μg released [1, 10]: 39 µg; cumulative sum over time [1, 10]: 39; % theoretical release [1, 10]: 58%; μg released [1, 11]: 11 µg; cumulative sum over time [1, 11]: 50; % theoretical release [1, 11]: 73%; μg released [1, 12]: 14 µg; cumulative sum over time [1, 12]: 64; % theoretical release [1, 12]: 94%; μg released [1, 13]: 1 µg; cumulative sum over time [1, 13]: 65; % theoretical release [1, 13]: 96%; μg released [1, 14]: 0 µg; cumulative sum over time [1, 14]: 65; % theoretical release [1, 14]: 96%; μg released [1, 15]: 0 µg; cumulative sum over time [1, 15]: 0; % theoretical release [1, 15]: 0%; μg released [1, 16]: 6 µg; cumulative sum over time [1, 16]: 6; % theoretical release [1, 16]: 13%; μg released [1, 17]: 4 µg; cumulative sum over time [1, 17]: 10; % theoretical release [1, 17]: 22%; μg released [1, 18]: 3.5 µg; cumulative sum over time [1, 18]: 15.5; % theoretical release [1, 18]: 34%; μg released [1, 19]: 27 µg; cumulative sum over time [1, 19]: 42.5; % theoretical release [1, 19]: 94%; complete release in the in vitro experimentation [2]: 30 h
